For seven molecules, binding results are on record in article PMC4447969.

Sequences of proteins named here, by UniProt entry; tags and fusion partners are left off. Residues count along the entry.
UniProt P61201: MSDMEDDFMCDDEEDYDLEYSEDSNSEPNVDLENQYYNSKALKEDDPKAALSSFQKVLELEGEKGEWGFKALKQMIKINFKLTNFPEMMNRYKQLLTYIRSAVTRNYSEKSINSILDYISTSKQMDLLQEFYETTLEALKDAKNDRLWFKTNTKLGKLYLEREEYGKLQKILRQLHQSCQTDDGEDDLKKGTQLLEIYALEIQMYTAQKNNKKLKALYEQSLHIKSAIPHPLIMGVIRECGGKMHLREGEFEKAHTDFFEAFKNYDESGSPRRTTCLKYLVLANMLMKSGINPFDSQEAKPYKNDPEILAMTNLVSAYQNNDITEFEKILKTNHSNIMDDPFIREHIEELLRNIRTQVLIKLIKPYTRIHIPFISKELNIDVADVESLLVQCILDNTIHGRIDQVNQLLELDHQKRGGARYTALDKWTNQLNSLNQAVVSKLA
UniProt Q9UNS2, residues 21-423: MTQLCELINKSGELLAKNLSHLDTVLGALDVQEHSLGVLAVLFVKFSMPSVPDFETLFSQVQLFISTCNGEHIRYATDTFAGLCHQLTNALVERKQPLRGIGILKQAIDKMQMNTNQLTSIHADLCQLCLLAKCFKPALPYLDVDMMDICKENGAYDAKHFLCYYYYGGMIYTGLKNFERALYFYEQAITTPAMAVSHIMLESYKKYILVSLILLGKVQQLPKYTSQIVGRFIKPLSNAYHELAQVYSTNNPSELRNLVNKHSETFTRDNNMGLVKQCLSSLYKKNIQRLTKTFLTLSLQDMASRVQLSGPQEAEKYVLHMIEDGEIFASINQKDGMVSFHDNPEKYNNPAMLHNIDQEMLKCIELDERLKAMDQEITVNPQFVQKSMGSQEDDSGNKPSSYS
UniProt Q86VP6: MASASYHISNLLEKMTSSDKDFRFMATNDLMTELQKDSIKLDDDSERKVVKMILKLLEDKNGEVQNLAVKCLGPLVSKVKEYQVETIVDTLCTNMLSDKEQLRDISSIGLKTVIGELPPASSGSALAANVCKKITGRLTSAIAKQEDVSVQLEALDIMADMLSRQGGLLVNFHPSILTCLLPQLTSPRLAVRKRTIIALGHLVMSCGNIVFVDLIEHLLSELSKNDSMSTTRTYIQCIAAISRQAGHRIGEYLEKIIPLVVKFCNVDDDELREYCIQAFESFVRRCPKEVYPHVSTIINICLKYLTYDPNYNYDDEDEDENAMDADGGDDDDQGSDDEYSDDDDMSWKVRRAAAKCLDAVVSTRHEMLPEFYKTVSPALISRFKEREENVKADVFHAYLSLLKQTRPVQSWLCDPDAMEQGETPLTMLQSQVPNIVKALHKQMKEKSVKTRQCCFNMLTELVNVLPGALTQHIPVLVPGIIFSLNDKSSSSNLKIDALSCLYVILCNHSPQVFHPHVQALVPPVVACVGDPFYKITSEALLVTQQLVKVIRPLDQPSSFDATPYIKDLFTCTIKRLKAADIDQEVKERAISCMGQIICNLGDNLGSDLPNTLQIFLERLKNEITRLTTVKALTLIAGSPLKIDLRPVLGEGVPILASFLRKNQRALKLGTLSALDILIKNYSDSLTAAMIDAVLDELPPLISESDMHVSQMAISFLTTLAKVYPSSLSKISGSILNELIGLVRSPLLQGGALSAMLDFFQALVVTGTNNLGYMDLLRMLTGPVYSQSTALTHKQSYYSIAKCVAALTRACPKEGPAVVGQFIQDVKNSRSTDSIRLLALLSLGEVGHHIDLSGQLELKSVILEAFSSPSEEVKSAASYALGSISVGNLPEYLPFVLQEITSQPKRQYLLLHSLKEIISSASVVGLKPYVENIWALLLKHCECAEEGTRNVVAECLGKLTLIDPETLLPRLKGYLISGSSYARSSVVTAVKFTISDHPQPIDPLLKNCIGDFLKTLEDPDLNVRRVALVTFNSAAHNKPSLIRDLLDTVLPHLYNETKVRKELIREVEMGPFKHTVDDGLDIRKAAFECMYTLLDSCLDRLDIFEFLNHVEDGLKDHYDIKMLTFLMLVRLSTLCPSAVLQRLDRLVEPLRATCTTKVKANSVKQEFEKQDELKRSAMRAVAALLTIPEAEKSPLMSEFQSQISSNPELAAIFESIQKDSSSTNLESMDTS
UniProt Q15843, residues 1-76: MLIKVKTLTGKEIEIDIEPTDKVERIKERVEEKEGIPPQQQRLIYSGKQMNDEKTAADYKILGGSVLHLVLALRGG
UniProt P22314: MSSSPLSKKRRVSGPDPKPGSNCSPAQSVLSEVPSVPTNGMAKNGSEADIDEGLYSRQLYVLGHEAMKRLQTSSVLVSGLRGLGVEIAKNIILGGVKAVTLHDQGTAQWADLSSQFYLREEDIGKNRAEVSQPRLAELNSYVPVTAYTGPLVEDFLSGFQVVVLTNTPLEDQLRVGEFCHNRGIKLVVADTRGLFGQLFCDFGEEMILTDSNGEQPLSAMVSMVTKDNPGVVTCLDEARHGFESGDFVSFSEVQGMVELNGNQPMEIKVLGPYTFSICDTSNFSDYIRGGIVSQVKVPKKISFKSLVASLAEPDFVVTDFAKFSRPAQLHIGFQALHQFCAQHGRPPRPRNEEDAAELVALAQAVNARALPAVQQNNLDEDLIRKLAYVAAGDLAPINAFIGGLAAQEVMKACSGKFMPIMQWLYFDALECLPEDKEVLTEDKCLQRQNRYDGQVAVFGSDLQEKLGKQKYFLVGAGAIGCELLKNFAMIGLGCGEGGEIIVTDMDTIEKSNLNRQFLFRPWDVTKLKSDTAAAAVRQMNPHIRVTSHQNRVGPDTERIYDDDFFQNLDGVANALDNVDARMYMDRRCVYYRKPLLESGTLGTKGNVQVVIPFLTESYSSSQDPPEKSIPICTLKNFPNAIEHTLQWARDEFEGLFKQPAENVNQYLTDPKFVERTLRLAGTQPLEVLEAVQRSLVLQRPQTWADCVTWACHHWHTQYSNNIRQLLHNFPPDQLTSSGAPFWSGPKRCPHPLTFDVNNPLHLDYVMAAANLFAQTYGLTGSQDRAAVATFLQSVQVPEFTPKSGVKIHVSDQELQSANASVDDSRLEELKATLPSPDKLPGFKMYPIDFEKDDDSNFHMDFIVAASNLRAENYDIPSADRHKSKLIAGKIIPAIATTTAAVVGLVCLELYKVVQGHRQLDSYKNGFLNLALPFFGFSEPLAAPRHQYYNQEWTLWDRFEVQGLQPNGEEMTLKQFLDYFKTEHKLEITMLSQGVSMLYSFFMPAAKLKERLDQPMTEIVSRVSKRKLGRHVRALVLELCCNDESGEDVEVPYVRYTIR

Sequences and labels used below:
B1: endogenous Pdcd4 (programmed cell death 4) (protein, UniProt Q53EL6 1-469)
chain: MDVENEQILNVNPADPDNLSDSLFSGDEENAGTEEIKNEINGNWISASSINEARINAKAKRRLRKNSSRDSGRGDSVSDSGSDALRSGLTVPTSPKGRLLDRRSRSGKGRGLPKKGGAGGKGVWGTPGQVYDVEEVDVKDPNYDDDQENCVYETVVLPLDERAFEKTLTPIIQEYFEHGDTNEVAEMLRDLNLGEMKSGVPVLAVSLALEGKASHREMTSKLLSDLCGTVMSTTDVEKSFDKLLKDLPELALDTPRAPQLVGQFIARAVGDGILCNTYIDSYKGTVDCVQARAALDKATVLLSMSKGGKRKDSVWGSGGGQQSVNHLVKEIDMLLKEYLLSGDISEAEHCLKELEVPHFHHELVYEAIIMVLESTGESTFKMILDLLKSLWKSSTITVDQMKRGYERIYNEIPDINLDVPHSYSVLERFVEECFQAGIISKQLRDLCPSRGRKRFVSEGDGGRLKPESY

No constants are given. Whether binding was seen depends on the method and setting. Binding seen in cells or lysates may run through a third protein. A yes stands for co-enrichment or nearness to the bait. Other partners may have been found. Tags and fused reporters may be left off the sequences shown.

The assay deals with T1, IBtkα-FLAG (human inhibitor of Bruton's tyrosine kinase isoform α, aa 1–1352) (human) (UniProt Q9P2D0).
T1 sequence: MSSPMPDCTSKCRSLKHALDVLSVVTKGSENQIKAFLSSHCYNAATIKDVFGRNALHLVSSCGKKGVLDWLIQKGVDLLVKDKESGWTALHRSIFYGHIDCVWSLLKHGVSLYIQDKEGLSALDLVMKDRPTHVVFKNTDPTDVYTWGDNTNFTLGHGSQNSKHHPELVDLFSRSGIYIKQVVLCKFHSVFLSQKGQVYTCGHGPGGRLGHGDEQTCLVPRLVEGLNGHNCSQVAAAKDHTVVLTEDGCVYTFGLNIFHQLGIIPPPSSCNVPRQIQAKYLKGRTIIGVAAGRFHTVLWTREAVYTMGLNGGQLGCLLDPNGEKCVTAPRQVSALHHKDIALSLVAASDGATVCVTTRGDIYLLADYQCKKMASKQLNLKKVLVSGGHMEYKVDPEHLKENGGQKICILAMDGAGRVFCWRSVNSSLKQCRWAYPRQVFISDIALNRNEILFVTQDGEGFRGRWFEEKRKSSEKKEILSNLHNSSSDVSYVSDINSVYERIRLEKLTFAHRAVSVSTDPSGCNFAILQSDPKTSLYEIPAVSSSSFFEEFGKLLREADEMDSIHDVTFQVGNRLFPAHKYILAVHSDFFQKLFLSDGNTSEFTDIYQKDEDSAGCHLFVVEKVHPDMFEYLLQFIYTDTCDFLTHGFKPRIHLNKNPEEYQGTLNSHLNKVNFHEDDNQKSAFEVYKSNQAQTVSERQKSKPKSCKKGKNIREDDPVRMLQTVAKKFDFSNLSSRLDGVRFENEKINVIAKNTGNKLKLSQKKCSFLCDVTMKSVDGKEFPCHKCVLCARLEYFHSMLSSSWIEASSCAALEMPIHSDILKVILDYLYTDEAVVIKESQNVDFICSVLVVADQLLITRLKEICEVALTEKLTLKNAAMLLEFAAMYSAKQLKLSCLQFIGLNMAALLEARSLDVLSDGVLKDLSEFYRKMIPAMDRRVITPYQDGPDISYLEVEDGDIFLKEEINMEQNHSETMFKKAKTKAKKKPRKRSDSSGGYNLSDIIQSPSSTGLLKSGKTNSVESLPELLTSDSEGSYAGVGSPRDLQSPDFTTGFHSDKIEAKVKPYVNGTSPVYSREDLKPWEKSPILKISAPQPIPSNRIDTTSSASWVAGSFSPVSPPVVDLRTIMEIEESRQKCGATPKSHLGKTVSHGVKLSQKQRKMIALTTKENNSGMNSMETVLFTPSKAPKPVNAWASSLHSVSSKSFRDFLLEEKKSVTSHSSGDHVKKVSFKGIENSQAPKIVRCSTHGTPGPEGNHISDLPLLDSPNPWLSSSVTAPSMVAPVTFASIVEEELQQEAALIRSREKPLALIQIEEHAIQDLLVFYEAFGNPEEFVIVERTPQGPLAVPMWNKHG
In words: affinity purification with mass spectrometry; HEK293T transfected with pCMV6-IBtkα-FLAG or empty vector; extracts (1.5 mg) immunoprecipitated with anti-FLAG antibody (20 μg), SDS-PAGE, in-gel tryptic digestion, nanoLC-MS/MS.
Regarding “COP9 signalosome complex subunit 2 (from UniProt P61201 1-443)”, the binding result is “binds”.

Turning to “COP9 signalosome complex subunit 3 (from UniProt Q9UNS2-2 1-403)”, the binding entry is on record as “binds”.

With “COP9 signalosome complex subunit 4 (from UniProt Q9BT78 1-406)”, the binding entry is listed as “binds”.

Turning to “Cullin-associated NEDD8-dissociated protein 1 (from UniProt Q86VP6 1-1230)”, the binding result is given as “binds”.

For NEDD8 (from UniProt Q15843 1-76), the binding result is reported as “binds”.

Take “Ubiquitin-like modifier-activating enzyme 1 (from UniProt P22314 1-1058)”: the binding entry was “binds”.

As for B1, the binding result is reported as “binds”.
